PubChem BioAssay AID1259308 | NCATS, 2017

- Test: 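Knock-downs that increase output of a recombinant reporter protein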 (primary screen)
- Cell system: human HEK293 embryonic kidney cells stably expressing firefly luciferase (HEK-CMV-Luc2-Hygro)
- Reagent: single siRNA against human genes, 0.8 pmol siRNA per well
- Timing: 72 h
- Detection: 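Luciferase light (ONE-Glo) measured on one replicate plate set and viability (CellTiter-Glo) on the other, scaled to a negative control siRNA, with robust z-scores and luciferase per cell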
- Scale: total luciferase, z-score and total luciferase, % of control: higher = more reporter protein produced; luciferase per cell, z-score: higher = more reporter output per viable cell; viable cells, % of control: higher = more viable cells
- Active means: 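An siRNA counts as active if its total luciferase robust z-score exceeds 3; genes with two or more such siRNAs out of three were retested with fresh siRNAs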
- Calls: active = raised luciferase; inactive = no rise
Shown is an unselected part of about 59,000 reagents. In the full data, about 1,510 (2.6%) were called active. 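Calls use total luciferase alone and ignore viability, so some active siRNAs may act by altering cell number.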 The numbers tell different reagents against one gene apart. Reagent sequences are not shown.

| Target gene | reagent no. | total luciferase, z-score | total luciferase, % of control | luciferase per cell, z-score | viable cells, % of control | Call |
| --- | --- | --- | --- | --- | --- | --- |
| PPHLN1 | 1 | 0.779 | 97.4 | 1.61 | 71.3 | inactive |
| PPHLN1 | 2 | 0.128 | 84.4 | 0.0118 | 94.1 | inactive |
| PPHLN1 | 3 | 1.25 | 107 | 0.736 | 98.3 | inactive |
| SCN10A | 1 | -1.95 | 43 | -2.17 | 85.1 | inactive |
| SCN10A | 2 | -0.0112 | 81.7 | 0.118 | 88.5 | inactive |
| SCN10A | 3 | 0.214 | 86.1 | -0.0408 | 97.3 | inactive |
| SLCO1B7 | 1 | 0.504 | 91.9 | -0.304 | 111 | inactive |
| SLCO1B7 | 2 | -1.7 | 48.1 | -2.02 | 91.6 | inactive |
| SLCO1B7 | 3 | 0.158 | 85 | 0.179 | 90.6 | inactive |
| LINC01530 | 1 | 1.69 | 115 | 1.41 | 89 | inactive |
| LINC01530 | 2 | 3.85 | 159 | 3.07 | 79 | active |
| LINC01530 | 3 | 1.22 | 106 | 0.853 | 94.7 | inactive |
| HMX3 | 1 | 0.755 | 96.9 | 0.262 | 101 | inactive |
| HMX3 | 2 | 0.472 | 91.3 | -0.352 | 112 | inactive |
| HMX3 | 3 | -0.399 | 73.9 | -0.293 | 89.3 | inactive |
| MAEL | 1 | -0.0557 | 80.8 | 0.207 | 85.5 | inactive |
| MAEL | 2 | -2.23 | 37.5 | -0.21 | 44.3 | inactive |
| MAEL | 3 | -0.821 | 65.6 | -1.33 | 104 | inactive |
| ENDOG | 1 | -0.908 | 63.8 | -1.32 | 101 | inactive |
| ENDOG | 2 | -0.718 | 67.6 | 0.978 | 58.4 | inactive |
| ENDOG | 3 | -0.732 | 67.3 | -0.193 | 79.2 | inactive |
| SERPINI1 | 1 | 0.122 | 84.3 | 0.528 | 82 | inactive |
| SERPINI1 | 2 | 0.145 | 84.8 | -0.485 | 108 | inactive |
| SERPINI1 | 3 | 0.946 | 101 | 0.579 | 96.6 | inactive |
| CT62 | 1 | 1.29 | 108 | 0.766 | 98.3 | inactive |
| CT62 | 2 | -0.46 | 72.7 | -0.517 | 93.1 | inactive |
| CT62 | 3 | -0.657 | 68.8 | -0.802 | 95 | inactive |
| FABP9 | 1 | -0.207 | 77.8 | -0.323 | 94.6 | inactive |
| FABP9 | 2 | -0.906 | 63.9 | -0.273 | 76.7 | inactive |
| FABP9 | 3 | -0.306 | 75.8 | -0.0789 | 86.5 | inactive |
| IL18BP | 1 | 3.67 | 155 | 2.06 | 101 | active |
| IL18BP | 2 | 1.58 | 113 | 2.28 | 69.4 | inactive |
| IL18BP | 3 | -0.682 | 68.3 | -0.735 | 92.6 | inactive |
| ZBP1 | 1 | 0.953 | 101 | 0.901 | 88.9 | inactive |
| ZBP1 | 2 | -0.0416 | 81.1 | -0.0845 | 92.6 | inactive |
| ZBP1 | 3 | 1.98 | 121 | 1.99 | 80.1 | inactive |
| GSTM2 | 1 | 1.07 | 103 | 0.42 | 103 | inactive |
| GSTM2 | 2 | -1.01 | 61.9 | -1.55 | 104 | inactive |
| GSTM2 | 3 | 2.31 | 128 | 2.41 | 75.6 | inactive |
| TAFA3 | 1 | -1.25 | 57 | 1.8 | 39.7 | inactive |
| TAFA3 | 2 | 2.85 | 138 | 2.03 | 90.6 | inactive |
| TAFA3 | 3 | -0.197 | 78 | 0.655 | 73.3 | inactive |
| SATL1 | 1 | 2.04 | 123 | 2.72 | 66.9 | inactive |
| SATL1 | 2 | -0.166 | 78.6 | 0.433 | 78.3 | inactive |
| SATL1 | 3 | 1.48 | 111 | 1.5 | 83.8 | inactive |
| SLC19A3 | 1 | 0.577 | 93.4 | 0.049 | 103 | inactive |
| SLC19A3 | 2 | 0.108 | 84 | 0.276 | 87.3 | inactive |
| SLC19A3 | 3 | -2.81 | 26 | -2.1 | 50.6 | inactive |
| MMP8 | 1 | -0.404 | 73.8 | -0.265 | 88.5 | inactive |
| MMP8 | 2 | -0.3 | 75.9 | -0.715 | 102 | inactive |
| MMP8 | 3 | -2.22 | 37.8 | -2.29 | 77.1 | inactive |
| TCERG1L | 1 | -0.641 | 69.1 | -1.32 | 109 | inactive |
| TCERG1L | 2 | 0.143 | 84.7 | 0.137 | 91.3 | inactive |
| TCERG1L | 3 | -0.698 | 68 | -0.435 | 85.2 | inactive |
| ACP5 | 1 | 0.618 | 94.2 | 0.675 | 88.1 | inactive |
| ACP5 | 2 | 0.118 | 84.2 | -0.649 | 112 | inactive |
| ACP5 | 3 | -0.519 | 71.6 | -1.25 | 111 | inactive |

Not a retest: an excerpt of the list.
| Target gene | reagent no. | total luciferase, z-score | total luciferase, % of control | luciferase per cell, z-score | viable cells, % of control | Call |
| --- | --- | --- | --- | --- | --- | --- |
| FABP9 | 1 | -0.207 | 77.8 | -0.323 | 94.6 | inactive |
| FABP9 | 2 | -0.906 | 63.9 | -0.273 | 76.7 | inactive |
| FABP9 | 3 | -0.306 | 75.8 | -0.0789 | 86.5 | inactive |
| IL18BP | 1 | 3.67 | 155 | 2.06 | 101 | active |
| IL18BP | 2 | 1.58 | 113 | 2.28 | 69.4 | inactive |
| IL18BP | 3 | -0.682 | 68.3 | -0.735 | 92.6 | inactive |
